PubChem BioAssay AID588590 (National Center for Advancing Translational Sciences (NCATS), 2011)
Among all 390,000 compounds or so, about 4,000 (1%) were called active. This list was built around the results that the source calls inconclusive (neither active nor inactive); the mix of calls is not that of the screen. The call rests on the fitted dose curve; in most records, active means well fitted inhibition curve with a large enough effect; inconclusive means small, poorly fitted or top-dose-only effect, or another doubt; inactive means no such curve, though single readings can be large or run the other way. Potencies beside an inconclusive call are fits to weak or partial responses and may not hold up.

By UniProt entry, the sequences of proteins in these tests, tags left out. Where a name states a change or a piece, a line headed by the entry shows the natural chain unless it says otherwise.
UniProt Q9UNA4: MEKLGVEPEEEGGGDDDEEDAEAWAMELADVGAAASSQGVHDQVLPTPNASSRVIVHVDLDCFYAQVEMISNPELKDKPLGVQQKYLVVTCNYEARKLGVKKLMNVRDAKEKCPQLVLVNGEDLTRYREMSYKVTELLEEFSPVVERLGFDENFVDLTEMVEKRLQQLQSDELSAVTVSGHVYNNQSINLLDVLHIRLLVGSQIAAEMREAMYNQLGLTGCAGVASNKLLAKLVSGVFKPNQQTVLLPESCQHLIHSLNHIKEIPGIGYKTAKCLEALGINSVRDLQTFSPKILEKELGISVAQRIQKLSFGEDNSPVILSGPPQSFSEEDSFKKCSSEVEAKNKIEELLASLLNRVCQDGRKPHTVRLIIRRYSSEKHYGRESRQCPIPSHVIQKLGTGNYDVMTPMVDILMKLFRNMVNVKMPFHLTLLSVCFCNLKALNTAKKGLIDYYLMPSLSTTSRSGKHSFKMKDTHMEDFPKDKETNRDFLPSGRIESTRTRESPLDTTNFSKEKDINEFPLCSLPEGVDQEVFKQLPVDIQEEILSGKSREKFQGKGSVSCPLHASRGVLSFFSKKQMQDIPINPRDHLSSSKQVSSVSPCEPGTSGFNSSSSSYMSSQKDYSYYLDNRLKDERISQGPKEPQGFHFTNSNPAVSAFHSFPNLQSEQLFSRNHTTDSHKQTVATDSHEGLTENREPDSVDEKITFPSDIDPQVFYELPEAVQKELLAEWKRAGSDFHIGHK

molecular target: DNA polymerase iota (Homo sapiens) (UniProt Q9UNA4); assay: qHTS for Inhibitors of Polymerase Iota; conditions: Pol iota fluorescent replication assay, 10 min; series mostly up to 115 µM; activity, negative = inhibition: at the top concentration
Summary of the method: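 Fluorescent replication assay read twice, at 0 min and 10 min after adding 50 nM (final) substrate. Enzyme (10 nM) and compounds were first incubated 15 min at room temperature; enzyme-free buffer wells were negative controls.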
Potency means the concentration at half of the fitted maximal effect.

Potency, active:
O=C(O)c1ccccc1NS(=O)(=O)c1ccc(N/N=C/c2cccc(O)c2O)c([N+](=O)[O-])c1 10 µM
O=[N+]([O-])c1c(Nc2ccc(O)cc2)cc(Cl)c2nonc12 3.55 µM

Potency, inconclusive:
COc1ccc(-c2nc(CSc3nncn4c3cc3sccc34)c(C)o2)cc1OC 89.1 µM [inhibitor, single point]
CCCCCCCCCC(=O)N[C@H](CN1CCOCC1)[C@H](O)c1ccccc1 12.6 µM [inhibitor, partial curve, poor fit]
O=C(Nc1ccc(Cl)cc1)Nc1ccc2c(c1)N1CCN=C1S2 89.1 µM [inhibitor, single point]
CCc1nc(Nc2ccc(F)cc2)c2oc3ccccc3c2n1 17.8 µM [inhibitor, full curve]
O=C(Nc1sc2c(c1C(=O)NCc1ccco1)CCCC2)c1ccc2c(c1)OCO2 35.5 µM [inhibitor, single point]
COCCN(C(=O)Cc1cccs1)c1nnc(-c2ccncc2)s1 22.4 µM [inhibitor, partial curve, poor fit]
CCOc1ccc(N2C(=O)C(Cl)=C(Nc3ccccc3O)C2=O)cc1 11.2 µM [inhibitor, full curve, poor fit]
C=C1CC2C3CC[C@@]4(OCOC45COCO5)[C@@]3(C)C(O)CC2[C@@]2(C)CCC(=O)C=C12 (stereo partly specified) 89.1 µM [inhibitor, single point]
Cc1ccccc1NC(=O)CSc1nc2c(c(=O)n(C)c(=O)n2C)n1Cc1ccccc1F 11.2 µM [inhibitor, partial curve, poor fit]
CCOCCCNc1ncnc2c1cnn2-c1ccc(C)c(C)c1 89.1 µM [inhibitor, single point]
CCOC(=O)c1c(CN2CCN(Cc3ccccc3)CC2)n(C)c2cc(Br)c(OC)cc12 11.2 µM [inhibitor, single point]
Cc1ccc(/C=C/C(=O)OCC(=O)NCCN2C(=O)CSC2=O)cc1 100 µM [inhibitor, partial curve, poor fit]
CCOc1cc(/C=C2\SC(N)=NC2=O)ccc1O 25.1 µM [inhibitor, partial curve, poor fit]
CC(C)(C)c1ccc(-c2nc(SCCCOc3ccccc3)n3[nH]c(=O)cc3n2)cc1 0.631 µM [inhibitor, full curve, poor fit]
CCOC(=O)c1c(NC(=O)c2c(C)noc2C)sc2c1CCCCC2 35.5 µM [inhibitor, partial curve, poor fit]
COC/C=C/C1=CC2=CC(=O)C(C)(OC(=O)c3cnc4ccccc4n3)C(=O)C2=CN1CC(C)C (stereo unspecified) 12.6 µM [inhibitor, full curve, poor fit]
COc1ccc(C(=O)CN2CCN(CCN3C(=O)c4cccc5cccc(c45)C3=O)CC2)cc1 28.2 µM [inhibitor, single point]
O=C(/C=C/c1ccc(Cl)cc1)NCCCn1ccnc1 2.82 µM [inhibitor, full curve, poor fit]
Cc1oc2c(C)c3oc(=O)c(CCC(=O)N[C@@H](CC(C)C)C(=O)O)c(C)c3cc2c1C 79.4 µM [inhibitor, single point]
Nc1nnn(CC(=O)N/N=C/c2cn[nH]c2-c2ccccc2)n1 100 µM [inhibitor, single point]
COc1ccccc1N1CCN(C(=O)Cn2cnc3onc(-c4ccc(F)cc4)c3c2=O)CC1 89.1 µM [inhibitor, partial curve, poor fit]
OCCCNC(=S)Nc1ccc2nc(-c3ccccn3)c(-c3ccccn3)nc2c1 70.8 µM [inhibitor, partial curve, poor fit]
Cc1cc(C)n(CC(O)Cn2c3ccc(Br)cc3c3cc(Br)ccc32)c(=O)n1 (stereo unspecified) 56.2 µM [inhibitor, partial curve, poor fit]
COc1ccc(CNc2nc(NCc3ccc(OC)cc3)n(C(=O)c3ccncc3)n2)cc1 89.1 µM [inhibitor, single point]
CCCCCC(=O)Nc1cccc(C2=NOC3(C2)C[C@H](C(N)=O)N(C(=O)c2ccccc2)C3)c1 (stereo partly specified) 89.1 µM [inhibitor, single point]
CC(C)c1cc(CNC(=O)c2cc(COc3cncc(Cl)c3)on2)on1 79.4 µM [inhibitor, single point]
N=C1/C(=C\c2coc3ccccc3c2=O)C(=O)N=C2SC(c3ccncc3)=NN12 3.55 µM [inhibitor, full curve, poor fit]
O=C(Nc1ccc(N2CCOCC2)cc1)c1cc2c(s1)CCCCC2 39.8 µM [inhibitor, single point]
OC(CCc1ccncc1)c1ccccc1 (stereo unspecified) 39.8 µM [inhibitor, single point]
O=C(c1ccc(N2CCCC2)c([N+](=O)[O-])c1)N1CCN(CCO)CC1 50.1 µM [inhibitor, partial curve, poor fit]
CCC(C(=O)Nc1c(C)cc(C)cc1C)n1c(=O)c(-c2ccccc2NC(C)=O)nc2ccccc21 (stereo unspecified) 89.1 µM [inhibitor, single point]
Cc1cccc(NC(=O)CSc2nc(NS(=O)(=O)c3ccccc3)cc(=O)[nH]2)c1 39.8 µM [inhibitor, partial curve]
CC(/C=N/NC(=O)c1ccc(Cn2cc([N+](=O)[O-])cn2)o1)=C\c1ccccc1 89.1 µM [inhibitor, single point]
CC(C)(C)C(=O)C(Cl)C(=O)Nc1ccccc1 (stereo unspecified) 12.6 µM [inhibitor, partial curve, poor fit]
COc1ccccc1C(=O)Nc1nnc(-c2ccc(F)cc2)o1 0.794 µM [inhibitor, full curve, poor fit]
N=C1/C(=C\c2ccc(OC(=O)c3ccco3)cc2)C(=O)N=C2SC(N3CCCCC3)=NN12 3.16 µM [inhibitor, partial curve, poor fit]
Cc1ccc(O)c(NC(=O)CSc2n[nH]c(C)c2[N+](=O)[O-])c1 56.2 µM [inhibitor, single point]
COc1ccc(Nc2ncccc2C(=O)Nc2ccccc2)cc1 39.8 µM [inhibitor, single point]
Cc1cc2oc(C(=O)Nc3sc4c(c3C(=O)NCc3ccco3)CCC4)cc(=O)c2cc1C 89.1 µM [inhibitor, single point]
CC1(C)OC(=O)C2(Cc3ccc(Br)cc3N3CCCCC32)C(=O)O1 (stereo unspecified) 39.8 µM [inhibitor, single point]

activity, negative = inhibition, inactive:
CCC(=O)NC(c1ccco1)c1cc(Cl)c2cccnc2c1O (stereo unspecified) 48.5%
CCc1ccc(NC(=O)CSC2=Nc3ccccc3C3=NC(CCC(=O)NCc4ccco4)C(=O)N23)cc1 (stereo unspecified) 23.3%
COc1ccccc1Oc1c(C)oc2cc(OC(=O)c3ccco3)ccc2c1=O 3.36%
Cc1ccc2c(c1)-c1c(cnc3cc(-c4ccccc4)nn13)CO2 14.6%
CCCCCC(=O)Nc1cccc(C2=NOC3(C2)C[C@H](C(N)=O)N(C(=O)c2ccccc2C(=O)c2ccccc2)C3)c1 (stereo partly specified) 3.74%
CCOc1ccc2[nH]c(=O)c(CN(Cc3nnnn3Cc3ccco3)C3CCCCC3)cc2c1 6.46%
Cc1nc(SCC(=O)NCc2ccco2)nc(C)c1C 2.85%
CCOc1ccc(C(=O)Nc2cccc(-c3nc4cc(Cl)cc(Cl)c4o3)c2)cc1 12.8%
Cc1cccc(N2CCN(C(=O)c3cccc(-n4c(C)nc5cccnc54)c3)CC2)c1C 0.282%
CCCCCCOc1ccc(C2C(=O)N(C3CCCCC3)CC(=O)N2CCC)cc1 (stereo unspecified) 17.9%
C(=C\c1nc2ccccc2o1)/c1ccc2c(c1)OCO2 9.6%
Cc1nnc(N2CCC(C(=O)NCCc3ccccc3Cl)CC2)c2nn(-c3ccccc3)c(C)c12 -4.24%
CCOc1ccccc1N(CC(=O)NCCSc1ccccc1)S(=O)(=O)c1ccccc1 -5.41%
Cc1cc(-c2csc(NC(=O)c3ccc(=O)[nH]c3)n2)c(C)n1Cc1ccccc1 2.86%
CCOc1c(CNCc2ccc(C(=O)O)cc2)cccc1OC -4.83%
COc1ccc(OC)c(/C=N/NC(=O)c2[nH]nc3c2CCc2ccccc2-3)c1 -8.14%
CC(=O)c1ccc(Sc2ccccc2N)c([N+](=O)[O-])c1 13.6%
Cc1ccc(C)c(Cn2c(-c3cccs3)nc3ccccc32)c1 -2.65%
Cc1ccc(C)c(CN2C(=O)N(c3cc(Cl)ccc3C)S(=O)(=O)c3ccccc32)c1 21.5%
Cc1ccc(CCNC(=O)c2ccc3c(=O)n(-c4ccc(C)cc4)c(=O)[nH]c3c2)cc1 7.76%
CCOC(=O)c1c(C)[nH]c(C)c1S(=O)(=O)N1CCC(C(=O)N2CCN(c3cccc(C)c3)C(C)C2)CC1 (stereo unspecified) 5.12%
Cc1ccccc1CNC(=O)C(=O)NCCC1CCCCN1S(=O)(=O)c1cccs1 (stereo unspecified) 3.46%
CCNc1nc(NCC)n2c(SCC(=O)Nc3ccc(CC)cc3)nnc2n1 65.4%
CC(=O)c1ccc(N2CCN(C(=O)C3CCN(S(=O)(=O)c4ccc(Br)s4)CC3)CC2)cc1 4.36%

Random excerpt: 4 records from the list
activity, negative = inhibition, inactive:
C(=C\c1nc2ccccc2o1)/c1ccc2c(c1)OCO2 9.6%
CC(=O)c1ccc(Sc2ccccc2N)c([N+](=O)[O-])c1 13.6%
CCOc1c(CNCc2ccc(C(=O)O)cc2)cccc1OC -4.83%
Cc1nc(SCC(=O)NCc2ccco2)nc(C)c1C 2.85%

Ordered by molecular weight (falling): part of the list above.
activity, negative = inhibition, inactive:
CCCCCC(=O)Nc1cccc(C2=NOC3(C2)C[C@H](C(N)=O)N(C(=O)c2ccccc2C(=O)c2ccccc2)C3)c1 (stereo partly specified) 3.74%
CCCCCCOc1ccc(C2C(=O)N(C3CCCCC3)CC(=O)N2CCC)cc1 (stereo unspecified) 17.9%
COc1ccc(OC)c(/C=N/NC(=O)c2[nH]nc3c2CCc2ccccc2-3)c1 -8.14%
CCOc1c(CNCc2ccc(C(=O)O)cc2)cccc1OC -4.83%
